Taken from: PubChem BioAssay AID1053208 (Peter MacCallum Cancer Centre, 2014)

Test: 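Genes whose silencing cuts survival of bone tumour cells only with doxorubicin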 (primary screen)
Cell system: mouse osteosarcoma cells, early-passage culture from an engineered mouse model of fibroblastic bone tumour
Reagents: siRNA pool against mouse genes, 40 nM
Time to read-out: about 120 h (48 h before drug, then 72 h with drug)
Treatment: doxorubicin 100 nM for 72 h, roughly 30-40% inhibitory dose
Detection: 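Luminescent ATP signal taken as viability with or without 100 nM doxorubicin for 72 h; mean of two wells set against non-targeting siRNA and turned into robust z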
Reading the numbers: viability z-score with doxorubicin and doxorubicin viability vs non-targeting: higher = more viable cells under doxorubicin; viability z-score without drug: higher = more viable cells with knock-down alone; z-score of drug to no-drug ratio: higher = less drug sensitisation by knock-down
Rule for the call: 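a pool counts as active when its viability z-score with doxorubicin is -2 or below and its z-score without drug lies between -2 and 2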
This is a random part of about 17,000 reagents. 788 of all reagents (4.7%) were called active. 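Calls rest on z-score classes alone; an extra cut-off of viability at most 70% of control was not applied to them.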 Entries without a mark were called inactive.

gene,combined z-score class,viability z-score with doxorubicin,viability z-score without drug,z-score of drug to no-drug ratio,doxorubicin viability vs non-targeting
Slc5a2,no change with or without drug,0.45,0.84,0,0.98
"Tubb4b (tubulin, beta 4B class IVB)",no change with or without drug,0,-0.17,0.22,0.94
Galc (galactosylceramidase),no change with or without drug,1.12,1.18,0.45,1.04
Pnpla7 (patatin-like phospholipase domain containing 7),no change with or without drug,0.9,-0.17,1.24,1.02
Sh3yl1 (Sh3 domain YSC-like 1),no change with or without drug,-1.12,-0.51,-0.79,0.84
Ric1 (RAB6A GEF complex partner 1),no change with or without drug,-0.67,-0.67,-0.11,0.88
Adamts12 (ADAM metallopeptidase with thrombospondin type 1 motif 12),no change with or without drug,0.34,0.34,0.22,0.97
Vmn1r10 (vomeronasal 1 receptor 10),no change with or without drug,0.9,0.84,0.45,1.02
A430085C19 (retired record),no change with or without drug,-0.45,-1.18,0.45,0.9
5330439M10Rik (RIKEN cDNA 5330439M10 gene),high cell count with doxorubicin only,2.47,1.85,1.24,1.16
Gpc6 (glypican 6),no change with or without drug,-1.8,-0.67,-1.35,0.78
"Rev1 (REV1, DNA directed polymerase)",no change with or without drug,-0.9,0.17,-0.9,0.86
"Plekhh3 (pleckstrin homology, MyTH4 and FERM domain containing H3)",no change with or without drug,0.45,0.34,0.34,0.98
Ccdc181 (coiled-coil domain containing 181),high cell count without drug only,0.79,3.2,-1.01,1.01
Trim67 (tripartite motif-containing 67),no change with or without drug,-1.01,-0.34,-0.79,0.85
"Ap4s1 (adaptor-related protein complex AP-4, sigma 1)",no change with or without drug,-0.22,-1.52,1.01,0.92
Acot7 (acyl-CoA thioesterase 7),high cell count without drug only,1.57,3.04,-0.22,1.08
Fus (fused in sarcoma),no change with or without drug,-0.11,1.18,-0.79,0.93
"Scgb2b2 (secretoglobin, family 2B, member 2)",no change with or without drug,0.11,-0.67,0.67,0.95
Arhgap9 (Rho GTPase activating protein 9),no change with or without drug,0.45,0.84,0,0.98

A run of entries from the list above:
gene,combined z-score class,viability z-score with doxorubicin,viability z-score without drug,z-score of drug to no-drug ratio,doxorubicin viability vs non-targeting
5330439M10Rik (RIKEN cDNA 5330439M10 gene),high cell count with doxorubicin only,2.47,1.85,1.24,1.16
Gpc6 (glypican 6),no change with or without drug,-1.8,-0.67,-1.35,0.78
